PubChem BioAssay AID652243 | Drosophila RNAi Screening Center – 2013
Aim: 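Knock-downs that decrease or increase androgen receptor reporter signal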 (primary screen). System: Drosophila S2R+ cells. Knock-down reagent: long dsRNA against Drosophila genes. Time to read-out: 72 h (48 h, then 24 h hormone). Challenge: synthetic androgen R1881 at 10 nM for 24 h. Read-out: 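Per-well raw luminescence of the androgen-driven firefly reporter and of the Renilla control, two replicates each, without normalisation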. Scale: firefly reporter light: higher = more light from androgen-responsive reporter; Renilla control light: higher = more constitutive control signal (cell number, transfection). Call rule: 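Across duplicate plates, a knock-down whose log firefly/Renilla ratio shifted a set fold down or up from the GFP/LacZ control mean was a hit; the downward cut appears as both 1.5 and 3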. Meaning of the calls: active = hit: reporter lowered or raised; inactive = no hit.
The screen tested about 24,000 reagents; this is a random part of those with a known target gene and a result. Of all reagents, 246 (1%) got an active call. 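Plates not normalised; calls are printed but the firefly/Renilla ratio behind them is not deposited; fold cut for lowering reported inconsistently.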 The raw values are shown without normalisation. No sequences are given here. Not stated in the record: the amount of reagent.

Depletion of CG3097 (GeneID 31503) [DRSC18275] gave: firefly reporter light, replicate 1 = 2.18e5; firefly reporter light, replicate 2 = 2.71e5; Renilla control light, replicate 1 = 2.05e6; Renilla control light, replicate 2 = 1.52e6; inactive.
Against osk (GeneID 41066) [DRSC17023], the entry reads firefly reporter light, replicate 1 = 31513; firefly reporter light, replicate 2 = 24143; Renilla control light, replicate 1 = 4.31e5; Renilla control light, replicate 2 = 3.40e5; inactive.
After knock-down of Polr3C (GeneID 41542) [DRSC14490] the results were firefly reporter light, replicate 1 = 94179; firefly reporter light, replicate 2 = 91311; Renilla control light, replicate 1 = 6.40e5; Renilla control light, replicate 2 = 7.28e5; inactive.
For Polr3C (GeneID 41542) [DRSC28198] the deposit lists firefly reporter light, replicate 1 = 4.93e5; firefly reporter light, replicate 2 = 7.18e5; Renilla control light, replicate 1 = 1.60e6; Renilla control light, replicate 2 = 1.50e6; inactive.
Silencing of QC (GeneID 38663) [DRSC09736] resulted in: firefly reporter light, replicate 1 = 9.26e5; firefly reporter light, replicate 2 = 8.61e5; Renilla control light, replicate 1 = 2.17e6; Renilla control light, replicate 2 = 2.03e6; inactive.
Against CG1307 (GeneID 40814) [DRSC12492], the entry reads firefly reporter light, replicate 1 = 79251; firefly reporter light, replicate 2 = 28542; Renilla control light, replicate 1 = 9.39e5; Renilla control light, replicate 2 = 3.39e5; inactive.
With knock-down of Trx2 (GeneID 34281) [DRSC03622], the screen gave firefly reporter light, replicate 1 = 2.23e5; firefly reporter light, replicate 2 = 1.80e5; Renilla control light, replicate 1 = 1.82e6; Renilla control light, replicate 2 = 1.33e6; inactive.
Trx2 (GeneID 34281) [DRSC28288] gave firefly reporter light, replicate 1 = 4.35e5; firefly reporter light, replicate 2 = 5.32e5; Renilla control light, replicate 1 = 1.08e6; Renilla control light, replicate 2 = 1.28e6; inactive.
Against CtsF (GeneID 40628) [DRSC12056] the deposit lists firefly reporter light, replicate 1 = 92820; firefly reporter light, replicate 2 = 93136; Renilla control light, replicate 1 = 2.09e5; Renilla control light, replicate 2 = 2.01e5; inactive.
After knock-down of CtsF (GeneID 40628) [DRSC12195], the screen gave firefly reporter light, replicate 1 = 19661; firefly reporter light, replicate 2 = 22160; Renilla control light, replicate 1 = 2.64e5; Renilla control light, replicate 2 = 2.65e5; inactive.
Knock-down of CtsF (GeneID 40628) [DRSC12196] gave: firefly reporter light, replicate 1 = 87441; firefly reporter light, replicate 2 = 1.00e5; Renilla control light, replicate 1 = 1.69e6; Renilla control light, replicate 2 = 1.79e6; inactive.
Silencing of Eig71Eh (GeneID 39709) [DRSC11155] gave: firefly reporter light, replicate 1 = 3.07e5; firefly reporter light, replicate 2 = 2.16e5; Renilla control light, replicate 1 = 3.02e6; Renilla control light, replicate 2 = 2.76e6; inactive.
Against CG7536 (GeneID 32786) [DRSC20050], the values are firefly reporter light, replicate 1 = 1.14e5; firefly reporter light, replicate 2 = 1.17e5; Renilla control light, replicate 1 = 7.06e5; Renilla control light, replicate 2 = 7.06e5; inactive.
Against Fmo-1 (GeneID 37814) [DRSC04328] the deposit lists firefly reporter light, replicate 1 = 1.34e6; firefly reporter light, replicate 2 = 6.61e5; Renilla control light, replicate 1 = 2.17e6; Renilla control light, replicate 2 = 1.03e6; inactive.
After knock-down of Fmo-1 (GeneID 37814) [DRSC29306], the record shows firefly reporter light, replicate 1 = 1.08e6; firefly reporter light, replicate 2 = 1.12e6; Renilla control light, replicate 1 = 9.00e5; Renilla control light, replicate 2 = 8.21e5; inactive.
Against Clic (GeneID 32349) [DRSC19364], the entry reads firefly reporter light, replicate 1 = 1.77e5; firefly reporter light, replicate 2 = 1.23e5; Renilla control light, replicate 1 = 8.01e5; Renilla control light, replicate 2 = 7.67e5; inactive.
With knock-down of CG13982 (GeneID 33895) [DRSC02314] the results were firefly reporter light, replicate 1 = 95447; firefly reporter light, replicate 2 = 1.21e5; Renilla control light, replicate 1 = 9.37e5; Renilla control light, replicate 2 = 9.16e5; inactive.
After knock-down of Ccdc85 (GeneID 33509) [DRSC23173] the results were firefly reporter light, replicate 1 = 9.34e5; firefly reporter light, replicate 2 = 6.21e5; Renilla control light, replicate 1 = 1.30e6; Renilla control light, replicate 2 = 1.96e6; inactive.

Quoted from above, 3 entries:
QC (GeneID 38663) [DRSC09736] — firefly reporter light, replicate 1: 9.26e5; firefly reporter light, replicate 2: 8.61e5; Renilla control light, replicate 1: 2.17e6; Renilla control light, replicate 2: 2.03e6; activity call: inactive
CG1307 (GeneID 40814) [DRSC12492] — firefly reporter light, replicate 1: 79251; firefly reporter light, replicate 2: 28542; Renilla control light, replicate 1: 9.39e5; Renilla control light, replicate 2: 3.39e5; activity call: inactive
Trx2 (GeneID 34281) [DRSC03622] — firefly reporter light, replicate 1: 2.23e5; firefly reporter light, replicate 2: 1.80e5; Renilla control light, replicate 1: 1.82e6; Renilla control light, replicate 2: 1.33e6; activity call: inactive

The listing continues:
Knock-down of CAH8 (GeneID 42625) [DRSC15784] came out at: firefly reporter light, replicate 1 = 2.00e5; firefly reporter light, replicate 2 = 2.84e5; Renilla control light, replicate 1 = 3.66e6; Renilla control light, replicate 2 = 3.27e6; inactive.
Depletion of Cpr66Cb (GeneID 38940) [DRSC10769] gave: firefly reporter light, replicate 1 = 3.26e5; firefly reporter light, replicate 2 = 2.16e5; Renilla control light, replicate 1 = 2.96e6; Renilla control light, replicate 2 = 1.91e6; inactive.
CG11334 (GeneID 43713) [DRSC14066] scored firefly reporter light, replicate 1 = 4.51e5; firefly reporter light, replicate 2 = 1.83e5; Renilla control light, replicate 1 = 5.80e5; Renilla control light, replicate 2 = 3.16e5; inactive.
Against CG11334 (GeneID 43713) [DRSC14302], the values are firefly reporter light, replicate 1 = 2.49e5; firefly reporter light, replicate 2 = 2.13e5; Renilla control light, replicate 1 = 1.92e6; Renilla control light, replicate 2 = 2.94e6; inactive.
CG5592 (GeneID 38662) [DRSC10524] gave firefly reporter light, replicate 1 = 70523; firefly reporter light, replicate 2 = 1.60e5; Renilla control light, replicate 1 = 1.06e6; Renilla control light, replicate 2 = 1.51e6; inactive.
Silencing of Vps37B (GeneID 40624) [DRSC12165] resulted in: firefly reporter light, replicate 1 = 28496; firefly reporter light, replicate 2 = 24787; Renilla control light, replicate 1 = 4.13e5; Renilla control light, replicate 2 = 2.96e5; inactive.
Depletion of Obp50d (GeneID 246436) [DRSC05483] came out at: firefly reporter light, replicate 1 = 1.64e5; firefly reporter light, replicate 2 = 1.46e5; Renilla control light, replicate 1 = 3.76e5; Renilla control light, replicate 2 = 3.27e5; inactive.
Knock-down of CG12289 (GeneID 39279) [DRSC09874] gave: firefly reporter light, replicate 1 = 1.80e5; firefly reporter light, replicate 2 = 1.53e5; Renilla control light, replicate 1 = 2.64e6; Renilla control light, replicate 2 = 2.32e6; inactive.
After knock-down of CG12289 (GeneID 39279) [DRSC39299], the screen gave inactive.
Against CG12289 (GeneID 39279) [DRSC39312], the values are inactive.
